Some values come without a unit; they compare only within their column.
System: DYT1 patient plasma
Assay: Whole plasma metabolomics (Biocrates MxP Quant 500 Kit), DYT1 vs Healthy Controls
Conditions: for Mean of DYT1-Dystonia: DYT1-Dystonia group; for Mean of Healthy Control: Healthy Control group; for LogFC / Ratio: DYT1-Dystonia vs Healthy Control
[1] = Mean of Healthy Control minus Mean of DYT1-Dystonia
[2] = human whole plasma metabolite level
[3] = Healthy Control mean minus DYT1-Dystonia mean

| SMILES | Difference [1] | Mean of DYT1-Dystonia [2] | Mean of Healthy Control [2] | LogFC | Ratio | Difference [3] | Mean of DYT1-Dystonia (human plasma metabolite level) | Mean of Healthy Control (human plasma metabolite level) |
| --- | --- | --- | --- | --- | --- | --- | --- | --- |
| Cn1cnc(C[C@H](N)C(=O)O)c1 [1-Met-His_Aminoacids Related] | 0.6347 | 6.473 | 7.108 |  |  |  |  |  |
| O=C(O)Cc1c[nH]c2ccccc12 [3-IAA_Indoles Derivatives] | −2.939 | 9.304 | 6.364 |  |  |  |  |  |
| O=C(O)CCc1c[nH]c2ccccc12 [3-IPA_Indoles Derivatives] | 0.1708 | 0.3176 | 0.4884 |  |  |  |  |  |
| Cn1cncc1C[C@H](N)C(=O)O [3-Met-His_Aminoacids Related] | 4.94 | 12.4 | 17.34 |  |  |  |  |  |
| NCCCCC(=O)O [5-AVA_Aminoacids Related] | 0.05599 | 0.06457 | 0.1206 | −0.9013 | 0.5354 |  |  |  |
| CCC(N)C(=O)O (stereo not shown) [AABA_Aminoacids Related] | 6.05 | 34.66 | 40.71 |  |  |  |  |  |
| CCCCC/C=C\C/C=C\C/C=C\C/C=C\CCCC(=O)O [AA_Fatty Acids] | 0.0607 | 0.4471 | 0.5078 |  |  |  |  |  |
| CN(C)C(N)=NCCC[C@H](N)C(=O)O [ADMA_Aminoacids Related] |  |  |  |  |  | 0.009957 | 0.5582 | 0.5681 |
| O=C(O)/C=C(\CC(=O)O)C(=O)O [AconAcid_Carboxylic Acids] |  |  |  |  |  | 0.1925 | 5.532 | 5.724 |
| C[C@H](N)C(=O)O [Ala_Aminoacids] | 63.96 | 523.2 | 587.1 |  |  |  |  |  |
| N=C(N)NCCC[C@H](N)C(=O)O [Arg_Aminoacids] | 17.97 | 114.7 | 132.7 |  |  |  |  |  |
| NC(=O)C[C@H](N)C(=O)O [Asn_Aminoacids] | 6.784 | 78.14 | 84.92 |  |  |  |  |  |
| N[C@@H](CC(=O)O)C(=O)O [Asp_Aminoacids] | 2.169 | 6.715 | 8.883 | −0.4037 | 0.7559 |  |  |  |
| CC(N)CC(=O)O (stereo not shown) [BABA_Aminoacids Related] | 0.01955 | 0.08245 | 0.102 |  |  |  |  |  |
| C[N+](C)(C)CC(=O)O [Betaine_Aminoacids Related] | 10.83 | 66.16 | 77 |  |  |  |  |  |
| CC(=O)O[C@H](CC(=O)[O-])C[N+](C)(C)C [C2_Acylcarnitines] | 0.6539 | 5.944 | 6.598 |  |  |  |  |  |
| C=CC(=O)OC(CC(=O)[O-])C[N+](C)(C)C (stereo not shown) [C3:1_Acylcarnitines] | 0.02054 | 0.2605 | 0.281 |  |  |  |  |  |
| CCC(=O)OC(CC(=O)[O-])C[N+](C)(C)C (stereo not shown) [C3_Acylcarnitines] | 0.05677 | 0.5561 | 0.6129 |  |  |  |  |  |
| CCCCCCCCCCCCCCCCCC(=O)O[C@H](CC(=O)[O-])C[N+](C)(C)C [C18_Acylcarnitines] | −0.002826 | 0.05309 | 0.05027 |  |  |  |  |  |
| C[C@H](CCC(=O)O)[C@H]1CC[C@H]2[C@@H]3[C@H](O)C[C@@H]4C[C@H](O)CC[C@]4(C)[C@H]3C[C@H](O)[C@]12C [CA_Bile Acids] | 0.1363 | 0.1642 | 0.3005 |  |  |  |  |  |

| SMILES | Difference [1] | Mean of DYT1-Dystonia [2] | Mean of Healthy Control [2] | LogFC | Ratio | Difference [3] | Mean of DYT1-Dystonia (human plasma metabolite level) | Mean of Healthy Control (human plasma metabolite level) |
| --- | --- | --- | --- | --- | --- | --- | --- | --- |
| CCCCCCCCCCCCCC(=O)O[C@H]1CC[C@@]2(C)C(=CC[C@H]3[C@@H]4CC[C@H]([C@H](C)CCCC(C)C)[C@@]4(C)CC[C@@H]32)C1 [CE(14:0)_Cholesterol Esters] | 3.979 | 9.408 | 13.39 |  |  |  |  |  |
| CCCCCCCCCCCCCCC(=O)O[C@H]1CC[C@@]2(C)C(=CC[C@H]3[C@@H]4CC[C@H]([C@H](C)CCCC(C)C)[C@@]4(C)CC[C@@H]32)C1 [CE(15:0)_Cholesterol Esters] |  |  |  |  |  | −0.02641 | 3.043 | 3.017 |
| CCCCCCCCCCCCCCCC(=O)O[C@H]1CC[C@@]2(C)C(=CC[C@H]3[C@@H]4CC[C@H]([C@H](C)CCCC(C)C)[C@@]4(C)CC[C@@H]32)C1 [CE(16:0)_Cholesterol Esters] | 16.58 | 108.6 | 125.2 |  |  |  |  |  |
| C[N+](C)(C)C[C@H](O)CC(=O)[O-] [CO_Acylcarnitines] |  |  |  |  |  | 0.159 | 46.51 | 46.67 |
| CCCCCCCCCCCC=CC(O)C(CO)NC(=O)CCCCCCCCCCCCCCCCCCCCC (stereo not shown) [Cer(d16:1/22:0)_Ceramides] | 0.09075 | 0.5108 | 0.6015 |  |  |  |  |  |
| CCCCCCCCCCC/C=C/[C@@H](O)[C@H](CO)NC(=O)CCCCCCCCCCCCCCCCCCCCCCC [Cer(d16:1/24:0)_Ceramides] | 0.03534 | 0.3528 | 0.3881 |  |  |  |  |  |
| CCCCCCCCCCCCC/C=C/[C@@H](O)[C@H](CO)NC(=O)CCCCCCCCCCCCC [Cer(d18:1/14:0)_Ceramides] | 0.02054 | 0.1654 | 0.186 |  |  |  |  |  |
| CCCCCCCCCCCCC/C=C/[C@@H](O)[C@H](CO)NC(=O)CCCCCCCCCCCCCCC [Cer(d18:1/16:0)_Ceramides] | −0.04891 | 0.9077 | 0.8588 |  |  |  |  |  |
| CCCCCCCCCCCCC/C=C/[C@@H](O)[C@H](CO)NC(=O)CCCCCCCCCCCCCCCCC [Cer(d18:1/18:0)_Ceramides] |  |  |  |  |  | −0.01126 | 0.2952 | 0.2839 |
| CCCCCCCCCCCCC/C=C/[C@@H](O)[C@H](CO)NC(=O)CCCCCCCCCCCCCCCCCCC [Cer(d18:1/20:0)_Ceramides] |  |  |  |  |  | 0.004778 | 0.206 | 0.2108 |
| CCCCCCCCCCCCC/C=C/[C@@H](O)[C@H](CO)NC(=O)CCCCCCCCCCCCCCCCCCCCC [Cer(d18:1/22:0)_Ceramides] |  |  |  |  |  | −0.02982 | 1.234 | 1.204 |
| CCCCCCCCCCCCC/C=C/[C@@H](O)[C@H](CO)NC(=O)CCCCCCCCCCCCCCCCCCCCCC [Cer(d18:1/23:0)_Ceramides] | 0.09777 | 1.286 | 1.384 |  |  |  |  |  |
| CCCCCCCCCCCCC/C=C/[C@@H](O)[C@H](CO)NC(=O)CCCCCCCCCCCCCCCCCCCCCCC [Cer(d18:1/24:0)_Ceramides] |  |  |  |  |  | −0.134 | 3.389 | 3.255 |
| CCCCCCCCCCCCC/C=C/[C@@H](O)[C@H](CO)NC(=O)CCCCCCCCCCCCCCCCCCCCCCCC [Cer(d18:1/25:0)_Ceramides] | 0.07031 | 0.4637 | 0.534 |  |  |  |  |  |
| CCCCCCCCCCCCC/C=C/[C@@H](O)[C@H](CO)NC(=O)CCCCCCCCCCCCCCCCCCCCCCCCC [Cer(d18:1/26:0)_Ceramides] | 0.02156 | 0.08885 | 0.1104 |  |  |  |  |  |
| C[N+](C)(C)CCO [Choline_Vitamins & Cofactors] | 1.178 | 7.47 | 8.648 |  |  |  |  |  |
| NC(=O)NCCC[C@H](N)C(=O)O [Cit_Aminoacids Related] |  |  |  |  |  | 2.03 | 44.18 | 46.21 |
| C[C@]12CCC(=O)C=C1CC[C@@H]1[C@@H]2[C@@H](O)C[C@@]2(C)[C@H]1CC[C@]2(O)C(=O)CO [Cortisol_Hormones] | −0.09268 | 0.3855 | 0.2928 |  |  |  |  |  |
| CN1CC(=O)NC1=N [Creatinine_Aminoacids Related] | −5.466 | 102 | 96.53 |  |  |  |  |  |

— patent US20260266848A1, “COMPOSITIONS AND METHODS FOR DIAGNOSING AND TREATING DYSTONIA” (Duke University, priority 2023, published 2026)
